In PubChem BioAssay AID1471 (National Center for Advancing Translational Sciences (NCATS), 2008):
The whole screen tested about 230,000 compounds, of which about 310 (0.13%) were called active. The shares of active, inactive and inconclusive entries below differ from those in the screen. The call rests on the fitted dose curve; in most records, active means well fitted activation curve with a large enough effect; inconclusive means small, poorly fitted or top-dose-only effect; inactive means no such curve, though single readings can be large or run the other way. Potencies of inconclusive entries are doubtful fits and often do not repeat.

Test: qHTS Multiplex Assay to Identify Dual Action Probes in a Cell Model of Huntington: Cytoprotection (ATP); further: nearly all actives have a fitted effect of over 45% in size;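 on cytoprotection (ATP increase): toxic huntingtin expression switched on by the ecdysone agonist tebufenozide; % of control where 0% means no effect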
Settings: PC12 HTT-Q103 induced, ATP luminescence, 40 h; cytoprotection (ATP increase): at 56.4 µM (top of the series) unless noted
Summary of the method: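 PC12 cells with ecdysone-inducible HTT exon 1 Q103-GFP, induced with 100 nM tebufenozide and co-treated with library compounds in a dose series (1536-well, 1500 cells/well). Cytoprotection read as ATP content by ATPlite luminescence.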
Potency means the concentration at half of the fitted maximal effect.

SMILES	Potency	cytoprotection (ATP increase)
CC1CCCC(C)N1NC(=O)c1ccc(Cl)c(S(N)(=O)=O)c1 (stereo unspecified)	inconclusive: 1260 nM [activator, single point]	
CCCN1Cc2cccc(C(=O)NCCCOC(C)C)c2C1=O		inactive: -5.73%
Cc1nc2ccccc2n1CC(O)COCC1CC=CCC1 (stereo unspecified)		inactive: -0.246%
O=c1c(-c2ccccc2)c1-c1ccccc1	active: 11200 nM	
Cc1cnc(CNc2cc(-c3cccnc3)ncn2)cn1	inconclusive: 35500 nM [activator, single point]	
Cc1c(Cl)cccc1NC(=S)NCc1ccccc1Cl		inactive: -3.44% [at 10 µM]
Nc1ccn([C@H]2CC[C@H](CO)O2)c(=O)n1	inconclusive: 3.2 nM [activator, full curve, poor fit]	
O=C1NCCNC(=O)c2ccccc2OCCOc2ccccc21	inconclusive: 1260 nM [activator, single point]	
Cc1[nH]c2ccccc2c1/C=C/C(=O)c1ccccc1	inconclusive: 1260 nM [activator, single point]	
CCOC(=O)N1CCN(CCC(=O)c2ccc(OC)cc2)CC1	inconclusive: 35500 nM [activator, single point]	
Cc1cccc(N2CCN(C(=O)Cc3ccc(-n4c(=O)[nH]c5ccsc5c4=O)cc3)CC2C)c1 (stereo unspecified)	inconclusive: 1000 nM [activator, single point]	
NNC(=O)C=C1CCN(c2ncc(C(F)(F)F)cc2Cl)CC1		inactive: -1.34% [at 10 µM]
CCOC(=O)C1CCCN(Cc2cc(OC)c(O)c(OC)c2)C1 (stereo unspecified)	inconclusive: 5620 nM [activator, single point]	
CN(C)CCCN1c2ccccc2C(C)(C)c2ccccc21	inconclusive: 891 nM [activator, full curve]	
O=C(COC(=O)CCc1ccc(S(=O)(=O)N2CCOCC2)cc1)NCc1ccccc1	inconclusive: 3550 nM [activator, single point]	
CCN1CCN(c2ccc([N+](=O)[O-])c(Sc3nc4ccccc4[nH]3)c2)CC1		inactive: 4.84% [at 10 µM]
Cc1nn(CCC#N)c(NC(=O)c2ccccc2)c1P(=O)(Nc1ccc(Br)cc1)N1CCOCC1 (stereo unspecified)	inconclusive: 5620 nM [activator, single point]	
CS(=O)(=O)N(Cc1ccc(C(=O)NCCSc2ccccn2)cc1)c1ccccc1	inconclusive: 5620 nM [activator, single point]	
CC[C@@H]1C(c2ccccc2)=NN(c2ccc(Br)cc2)[C@H]1C(=O)N1CCOC1=O	inconclusive: 1410 nM [activator, partial curve]	
CCCCC#CC1C=CC(Oc2ccc(C(=O)OC)cc2)C(COC(=O)OCC)O1 (stereo unspecified)	inconclusive: 1.1 nM [activator, full curve, poor fit]	
CC/C=C\C/C=C\C/C=C\CCCCCCCC(=O)O	inconclusive: 794 nM [activator, single point]	
CCOC(=O)c1c(CC(C)C)csc1N		inactive: -18.3%
CN(C(=O)C1CCN(S(=O)(=O)c2cccs2)CC1)c1ccccc1	inconclusive: 1580 nM [activator, partial curve]	
Cc1cc(CNC(=O)[C@H](C)[C@@H]2C[C@@]2(C)[C@@H](NC(=O)OCc2ccccc2)c2ccccc2)nn1C		inactive: 3.95%

SMILES	Potency	cytoprotection (ATP increase)
Cc1cc(C)c2ccc(NN)nc2c1O		inactive: -41.7%
COc1cc(NC(=O)C2CCCN2S(=O)(=O)c2cccc3cccnc23)cc(OC)c1OC (stereo unspecified)		inactive: -11.3%
Cc1[nH]c(=O)[nH]c(=O)c1N(C)C	inconclusive: 1580 nM [activator, partial curve]	
CC(C)CC(=O)NCc1ccc(F)cc1		inactive: -24%
O=C(COc1ccccc1)NCCSc1ccccc1		inactive: 34.6%
CC1(C)S[C@@H]2[C@H](NC(=O)COc3ccccc3)C(=O)N2[C@H]1C(=O)O	inconclusive: 501 nM [activator, full curve, poor fit]	
CS(=O)(=O)N(CCC#N)Cc1ccco1	inconclusive: 2240 nM [activator, full curve, poor fit]	
Cc1cccc2sc(N(CCN(C)C)C(=O)c3cc(Cl)sc3Cl)nc12	inconclusive: 3550 nM [activator, single point]	
O=Cc1ccccc1Cl		inactive: -46.1%
Cc1ccc(-c2nnc(NCc3ccccc3)c3ccccc23)cc1		inactive: -11.1% [at 10 µM]
CC(C)[C@@H](N)C(=O)O	inconclusive: 100 nM [activator, full curve]	
CN(C)c1ccccc1C(=O)N1CCCC(C(=O)c2ccc3ccccc3c2)C1 (stereo unspecified)		inactive: 9.39%
Cc1nc2c(O)cccc2c(=O)[nH]1		inactive: -1.89%
COc1ccccc1NC(=S)NCCc1ccc(F)cc1	inconclusive: 10000 nM [activator, partial curve, poor fit]	
C=C1CC[C@@H]2[C@](C)(CC[C@@H](O)[C@]2(C)CO)[C@@H]1C/C=C1/C(=O)OC[C@H]1O	active: 39800 nM	
CCOC(=O)c1c(NC(=O)C2=C(C)NC(=S)NC2c2ccc(CC)cc2)sc(C)c1C (stereo unspecified)		inactive: -0.168% [at 10 µM]
COc1ccc(-n2nnnc2SCc2nc3ccccc3s2)cc1		inactive: -34.6%
O=C(COC(=O)Cc1ccc(Cl)cc1)Nc1c(F)cccc1F	inconclusive: 1580 nM [activator, partial curve, poor fit]	
Cc1ccc(-c2nnc(-c3cccs3)o2)cc1	inconclusive: 1000 nM [activator, single point]	
C=CCOc1c(Cl)cc(CNc2ccc(N(C)C)cc2)cc1OC	inconclusive: 562 nM [activator, single point]	
CSC(=Nc1ccccc1)C1=C(O)COC1=O		inactive: -1.3% [at 10 µM]
O=C(CCc1ccc(S(=O)(=O)N2CCOCC2)cc1)Nc1nc(COc2ccccc2)cs1		inactive: -36.3%
O=C(O)c1ccn(COc2ccc(Br)cc2)n1	inconclusive: 3550 nM [activator, single point]	

SMILES	Potency	cytoprotection (ATP increase)
N#CCCn1c(=O)cnc2cnc(N3CCOCC3)nc21	inconclusive: 2240 nM [activator, single point]	
COc1ccc(C(=O)CSc2n[nH]c(=O)[nH]c2=O)cc1	inconclusive: 3980 nM [activator, partial curve, poor fit]	
N#Cc1cccc(CS(=O)(=O)c2nnnn2-c2cc(C(F)(F)F)cc(C(F)(F)F)c2)c1	inconclusive: 1410 nM [activator, partial curve]	
COC(=O)[C@@]1(Cc2ccccc2)[C@@H]2C(=CC(=O)[C@H]2CC(=O)C(=O)N(C)C)CN1C(=O)c1ccccc1	inconclusive: 2510 nM [activator, partial curve, poor fit]	
CCc1ccccc1NC(=O)CSc1nnc([C@@H](N)Cc2ccccc2)o1		inactive: 22.7%
O=S(=O)(c1ccccc1)N1CCC2(CCCN(c3ccccn3)C2)CC1	inconclusive: 141 nM [activator, full curve]	
NC(=O)COC(=O)/C=C/c1ccc2ccccc2n1	inconclusive: 31600 nM [activator, single point]	
Cc1ccccc1-c1noc(-c2ccccc2F)n1	inconclusive: 4470 nM [activator, single point]	
COc1ccc2[nH]cc(CCNc3ncncc3-c3cccc(NS(C)(=O)=O)c3)c2c1	inconclusive: 2510 nM [activator, full curve]	
CN(Cc1ccc(C(C)(C)C)cc1)Cc1cccc2ccccc12	inconclusive: 5.6 nM [activator, full curve, poor fit]	
COc1ccc(CCNC(=O)COC(=O)Cn2cnc3ccccc32)cc1OC		inactive: -19.1%
Cc1cc(/C=N/NC(=O)c2cccc(N(C)C)c2)c(C)n1-c1cc(C(=O)O)cc(C(=O)O)c1		inactive: -33.7%
O=C(CN1CCCC1)Nc1ccccc1Sc1ccccc1	inconclusive: 794 nM [activator, single point]	
Cc1ccc(N(CN2CCCC2=O)C(=O)c2ccc(C)c(C)c2)cc1	inconclusive: 355 nM [activator, partial curve, poor fit]	
COc1cccc(C2c3c(oc4ccccc4c3=O)C(=O)N2CCCN2CCOCC2)c1OC (stereo unspecified)		inactive: -14.4% [at 0.074 µM]
Cn1cc(P(=O)(N2CCOCC2)N2CCOCC2)cc1P(=S)(N1CCOCC1)N1CCOCC1	inconclusive: 17800 nM [activator, partial curve, poor fit]	
COc1ccc(CC(=O)Nc2ccc(C(=O)NCC(C)C)cc2)cc1	inconclusive: 3550 nM [activator, single point]	
COc1ccc(C(=O)N2CCC3(CCCN(C(=O)NC(C)C)C3)CC2)cc1	inconclusive: 3160 nM [activator, single point]	
CC(=O)c1ccc(Oc2nc3c(c(=O)n(C)c(=O)n3C)n2C)cc1	inconclusive: 631 nM [activator, full curve, poor fit]	
COc1ccccc1N1C(=O)C(Cl)=C(Nc2ccccc2O)C1=O	inconclusive: 35500 nM [activator, single point]	
CC(C)c1ccc(NC(=S)NN(c2ccccc2)c2ccccc2)cc1		inactive: 30.8% [at 10 µM]
O=S(=O)(c1cccc(F)c1)N1CCN(C(=S)NCc2ccccc2)CC1		inactive: 9.09% [at 10 µM]
CNC(=O)c1[nH]cnc1C(=O)Nc1cccc(OC)c1		inactive: -10.6% [at 0.074 µM]
